PubChem BioAssay AID504786 – Drosophila RNAi Screening Center – 2011

Purpose: 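Knock-downs reducing HIF reporter induction by the iron chelator DFO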 (primary screen)
Cells: Drosophila S2 cells with a stable HIF luciferase reporter
Reagents: long dsRNA against Drosophila genes, about 0.2 µg dsRNA per well of a 384-well plate
Duration: three days of knock-down, then 20 h of DFO before reading
Conditions: desferrioxamine (DFO) at 100 µM, an iron chelator that mimics hypoxia, for 20 h
Measured: 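Firefly luciferase driven by the mouse ldh-a hypoxia-response element, measured after 20 h of 100 µM DFO; z-scores per plate, higher means more signal lost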
Scale: z-score: higher = stronger loss of HIF reporter signal
The deposit covers about 21,000 reagents; below is an unselected part of those with a known target gene and a result. 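Primary screen; positive scores mean lost reporter signal, so the sign may be inverted from the usual convention.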 The numbers tell different reagents against one gene apart. A plus sign joins genes that one reagent is predicted to hit. Further read-outs or replicates are left out here. Reagent sequences are not shown.

| Target gene | reagent no. | z-score, replicate 1 | z-score, replicate 2 |
| --- | --- | --- | --- |
| RhoGAP19D | 1 | -0.2 | -0.2 |
| RhoGAP19D | 2 | -0.1 | 0.1 |
| sw | 1 | -0.3 | -0.2 |
| CG11980 | 1 | -0.2 | -0.4 |
| CG14835 | 1 | -0.3 | -0.4 |
| Det | 1 | -0.2 | -0.2 |
| capu | 1 | -0.2 | 0.1 |
| capu | 2 | -0.3 | -0.8 |
| capu | 3 | -0.4 | -0.2 |
| capu | 4 | -0.3 | -0.1 |
| CG31142 | 1 | 0.3 | 0.6 |
| PsGEF | 1 | -0.5 | 0.6 |
| Polr2M | 1 | 0.2 | -0.3 |
| tra2 | 1 | -0.4 | -0.7 |
| CG14115 | 1 | 0.3 | -0.2 |
| CG8326 | 1 | 0 | 0.4 |
| CG5953 | 1 | 1.9 | 0.2 |
| CG5953 | 2 | -0.2 | 1.4 |
| TBC1d7 + mRpS24 | 1 | 0.4 | 0 |
| Lip1 | 1 | -0.3 | -0.2 |
| Irbp | 1 | -0.3 | -0.6 |
| CG14722 | 1 | 0 | 0 |
| hpo | 1 | -0.2 | -0.7 |
| Uxt | 1 | -0.2 | -0.2 |
| Tim17b1 | 1 | -0.3 | -0.5 |
| Loxl1 | 1 | -0.2 | 0.3 |
| RFeSP | 1 | -0.3 | 0.3 |
| CanA1 | 1 | -0.2 | -0.6 |
| Cp16 | 1 | -0.1 | -0.4 |
| CG9664 | 1 | -0.3 | 0.1 |
| Polr2J | 1 | -0.2 | -0.5 |
| CG15142 | 1 | -0.3 | -0.1 |
| CG9519 | 1 | -0.4 | -0.2 |
| snoRNA:Me28S-C3420b + RpS11 | 1 | -0.2 | -0.3 |
| Eig71Ec | 1 | -0.3 | 0.2 |
| CG10750 | 1 | -0.3 | -0.5 |
| Mgtor | 1 | -0.4 | -0.6 |
| CG32985 | 1 | -0.3 | -0.3 |
| e(y)2b | 1 | -0.3 | -0.3 |
| Prosalpha2 | 1 | 7.4 | 4.7 |
| ksr | 1 | 0.1 | 0.6 |
| Cyp301a1 | 1 | -0.2 | -0.4 |
| CG17377 | 1 | -0.5 | 0.3 |
| CG17377 | 2 | -0.3 | -0.4 |
| CG5883 | 1 | -0.2 | -0.2 |
| CG8492 | 1 | -0.4 | -0.2 |
| drn | 1 | 1.8 | 2 |
| cerv | 1 | -0.1 | 0.2 |
| Cap-D3 | 1 | -0.2 | -1.1 |
| CR15280 | 1 | -0.2 | -0.4 |
| Pax | 1 | -0.4 | -0.4 |
| Pax | 2 | -0.3 | -0.1 |
| Pax | 3 | -0.3 | -0.4 |
| EMC1 | 1 | -0.3 | 0.1 |
| Dlic | 1 | -0.1 | 0 |
| CG10000 | 1 | -0.3 | -0.5 |
| CG15005 | 1 | -0.3 | -0.4 |
| mri | 1 | -0.2 | -0.4 |
| Pdp | 1 | -0.4 | -0.6 |
| Gr28a | 1 | -0.3 | -0.4 |
| CG15036 | 1 | 0.5 | 0.6 |
| VhaM9.7-b | 1 | -0.3 | -0.6 |
| Sil1 | 1 | -0.2 | 0.2 |
| 140up | 1 | -0.3 | -0.6 |
| siz | 1 | -0.2 | -0.1 |
| siz | 2 | -0.1 | -0.2 |
| siz | 3 | -0.1 | 0 |
| Adck5 | 1 | -0.3 | 0.5 |
| AdamTS-A | 1 | -0.3 | -0.1 |
| AdamTS-A | 2 | -0.3 | -0.3 |
| ERp60 | 1 | -0.1 | -0.9 |
| CG13359 | 1 | -0.3 | -0.7 |
| VhaM9.7-d | 1 | -0.2 | 1 |
| OdsH | 1 | -0.4 | 0.2 |
| Cpr67Fa1 | 1 | -0.3 | -0.4 |
| inaD | 1 | -0.3 | -0.2 |
| CG14223 | 1 | -0.1 | -0.5 |
| MED4 | 1 | 0.4 | 1.9 |
| stj | 1 | -0.3 | -0.4 |
| lncRNA:CR32368 | 1 | 0.2 | 0.8 |
| Yp1 | 1 | -0.2 | -0.8 |
| CG32432 | 1 | 3.1 | 0.1 |
| CG32432 | 2 | 2.4 | 0.1 |
| CG32432 | 3 | -0.3 | -0.5 |
